Results reported in the supplement of paper PMC9254222.
The highest values were mostly taken out for another list; the other results follow.

System: HEK293T (UBE3A T485A transfected, BAR Wnt reporter)
Test: Wnt reporter firefly/Renilla luciferase ratio relative to plate median (fold (linear ratio)); higher = more Wnt/beta-catenin reporter activation
Details: 24 h
Procedure, shortened: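 Chemicals were robotically dosed at 0.01–100 uM for 24 h onto HEK293T cells, starting four hours after transfection with a BAR firefly luciferase Wnt reporter, TK-Renilla and an expression plasmid. The cells had been plated at 4500 cells/well in DMEM with 10% FBS at 37°C and 5% CO2. Following a Dual-Glo luciferase readout, the firefly/Renilla ratio served as the Wnt activity measure and raw Renilla as the cell health measure, both median-centred on each plate. Each value is the mean of four biological replicates.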

With CCCCCCCCc1ccc(O)cc1 [4-Octylphenol] the “Wnt reporter firefly/Renilla luciferase ratio” value (concentration: 0.1 uM) was 1.02, the “Wnt reporter firefly/Renilla luciferase ratio” value (concentration: 1 uM) was 1.06 and the “Wnt reporter firefly/Renilla luciferase ratio” value (concentration: 10 uM) was 0.827. The “Wnt reporter firefly/Renilla luciferase ratio” value (concentration: 100 uM) was 1.27.
